PubChem BioAssay AID652259 | Drosophila RNAi Screening Center, 2013
Assay: 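Knock-downs that push a Wingless-driven reporter up or down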 (primary screen). Cells: Drosophila clone 8 imaginal disc epithelial cells. Reagent: long dsRNA against Drosophila genes. Treatment: pathway stimulated by co-transfected Wingless expression plasmid. Measured: 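Firefly luciferase from a tcf-site Wingless reporter, measured alongside co-transfected Renilla luciferase that tracks transfection; pathway stimulated by a Wingless plasmid; the firefly-to-Renilla ratio is not deposited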. Scale: firefly reporter light: higher = more Wg reporter light, before normalisation; Renilla control light: higher = more transfected or surviving cells. Call rule: 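a knock-down is a candidate when at least two out of four statistical tests show it departing from its plate mean; one test alone signals a weak candidate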. Meaning of the calls: active = candidate regulator (raises or lowers reporter); inactive = not a candidate.
In all, the deposit lists about 22,000 reagents; shown is an unselected part of those that have a named target and a result. In the full data, 233 (1.1%) got an active call. 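Light values are raw, unnormalised plate reads; the ratio scores behind the reporter calls were not deposited.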 A number with no mark means an inactive call. The record does not give: the amount of reagent, the time to read-out, the dose of the treatment.

Noc3 [DRSC12535]: firefly reporter light, replicate 1 = 3755; Renilla control light, replicate 1 = 1371
CG17633 [DRSC02631]: firefly reporter light, replicate 1 = 2134; firefly reporter light, replicate 2 = 8121; Renilla control light, replicate 1 = 705; Renilla control light, replicate 2 = 2827
CG5280 [DRSC10498]: firefly reporter light, replicate 1 = 2251; firefly reporter light, replicate 2 = 10118; Renilla control light, replicate 1 = 1735; Renilla control light, replicate 2 = 4136
CG5280 [DRSC22835]: firefly reporter light, replicate 1 = 1.06e6; firefly reporter light, replicate 2 = 6.44e5; Renilla control light, replicate 1 = 3.94e5; Renilla control light, replicate 2 = 3.83e5
scpr-B [DRSC15200]: firefly reporter light, replicate 1 = 6535; Renilla control light, replicate 1 = 2412
woc [DRSC15928]: firefly reporter light, replicate 1 = 4052; firefly reporter light, replicate 2 = 7559; Renilla control light, replicate 1 = 708; Renilla control light, replicate 2 = 1168
wap [DRSC20626]: firefly reporter light, replicate 1 = 3812; firefly reporter light, replicate 2 = 8054; Renilla control light, replicate 1 = 1193; Renilla control light, replicate 2 = 2784
CG1421 [DRSC03707]: firefly reporter light, replicate 1 = 2323; firefly reporter light, replicate 2 = 6148; Renilla control light, replicate 1 = 647; Renilla control light, replicate 2 = 2185
fmt [DRSC09717]: firefly reporter light, replicate 1 = 5162; Renilla control light, replicate 1 = 1714
Ndf [DRSC02775]: firefly reporter light, replicate 1 = 7832; Renilla control light, replicate 1 = 2150
CG16734 [DRSC15143]: firefly reporter light, replicate 1 = 15098; Renilla control light, replicate 1 = 3922
UQCR-11L [DRSC22166]: firefly reporter light, replicate 1 = 5.35e5; firefly reporter light, replicate 2 = 6.73e5; Renilla control light, replicate 1 = 2.34e5; Renilla control light, replicate 2 = 2.65e5

Not a retest: 2 of the entries above.
CG5280 [DRSC22835]: firefly reporter light, replicate 1 = 1.06e6; firefly reporter light, replicate 2 = 6.44e5; Renilla control light, replicate 1 = 3.94e5; Renilla control light, replicate 2 = 3.83e5
scpr-B [DRSC15200]: firefly reporter light, replicate 1 = 6535; Renilla control light, replicate 1 = 2412
